Test results: PMC2905097
Results are given in words; binding and its absence hold for the method and conditions named. In cells and extracts the contact can be indirect. Some entries that bind do so weakly or less than the wild type.

Protein sequences, listed by entry. Tags and fused reporters are not part of them.
UniProt Q7TQN4: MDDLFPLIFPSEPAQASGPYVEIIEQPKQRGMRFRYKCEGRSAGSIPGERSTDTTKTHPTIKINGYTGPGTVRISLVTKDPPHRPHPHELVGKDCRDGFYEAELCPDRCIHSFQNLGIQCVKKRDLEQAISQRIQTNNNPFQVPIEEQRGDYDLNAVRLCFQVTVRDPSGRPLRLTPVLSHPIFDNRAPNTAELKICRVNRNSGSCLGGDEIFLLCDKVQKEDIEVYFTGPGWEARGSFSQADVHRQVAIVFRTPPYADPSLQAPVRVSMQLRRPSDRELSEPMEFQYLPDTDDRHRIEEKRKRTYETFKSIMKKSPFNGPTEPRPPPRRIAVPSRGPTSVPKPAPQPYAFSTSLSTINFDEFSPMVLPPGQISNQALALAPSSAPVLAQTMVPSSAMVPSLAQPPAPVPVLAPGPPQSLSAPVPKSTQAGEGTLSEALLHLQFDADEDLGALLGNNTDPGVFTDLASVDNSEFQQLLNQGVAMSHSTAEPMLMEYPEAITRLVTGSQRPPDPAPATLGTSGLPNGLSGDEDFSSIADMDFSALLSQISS
UniProt P52631: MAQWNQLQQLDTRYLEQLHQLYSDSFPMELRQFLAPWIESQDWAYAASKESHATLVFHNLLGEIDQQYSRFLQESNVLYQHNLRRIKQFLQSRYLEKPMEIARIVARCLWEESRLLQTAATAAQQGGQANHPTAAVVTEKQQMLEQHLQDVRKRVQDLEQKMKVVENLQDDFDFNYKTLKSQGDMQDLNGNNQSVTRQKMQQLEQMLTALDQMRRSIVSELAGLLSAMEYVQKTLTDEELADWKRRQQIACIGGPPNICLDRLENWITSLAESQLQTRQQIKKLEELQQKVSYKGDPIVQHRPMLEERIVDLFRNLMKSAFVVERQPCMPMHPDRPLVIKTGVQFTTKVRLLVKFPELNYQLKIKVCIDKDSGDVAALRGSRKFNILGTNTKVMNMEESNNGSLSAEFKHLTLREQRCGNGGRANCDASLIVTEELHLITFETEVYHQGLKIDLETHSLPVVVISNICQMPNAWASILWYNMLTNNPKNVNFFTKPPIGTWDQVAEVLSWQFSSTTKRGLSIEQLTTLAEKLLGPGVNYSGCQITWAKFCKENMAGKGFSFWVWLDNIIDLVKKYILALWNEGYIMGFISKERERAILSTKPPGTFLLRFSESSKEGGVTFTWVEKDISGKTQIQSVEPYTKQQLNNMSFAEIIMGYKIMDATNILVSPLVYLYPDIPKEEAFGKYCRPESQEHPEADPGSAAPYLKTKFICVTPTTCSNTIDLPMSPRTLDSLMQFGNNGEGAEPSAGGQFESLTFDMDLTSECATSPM
UniProt P10361: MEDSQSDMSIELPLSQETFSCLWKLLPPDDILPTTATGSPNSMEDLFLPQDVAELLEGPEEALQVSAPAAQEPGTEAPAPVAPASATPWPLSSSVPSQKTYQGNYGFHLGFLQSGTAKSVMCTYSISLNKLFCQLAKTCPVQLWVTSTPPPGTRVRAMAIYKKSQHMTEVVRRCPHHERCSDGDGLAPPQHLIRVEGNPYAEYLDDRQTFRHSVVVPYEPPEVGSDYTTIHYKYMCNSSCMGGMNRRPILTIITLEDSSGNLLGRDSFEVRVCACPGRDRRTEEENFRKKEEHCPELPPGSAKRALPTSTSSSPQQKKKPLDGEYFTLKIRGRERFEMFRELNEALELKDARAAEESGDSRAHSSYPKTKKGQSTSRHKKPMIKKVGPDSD

What was measured:
[1] = target: NF-κB/RELA, endogenous in rat cardiac fibroblasts (rat (endogenous in primary neonatal rat cardiac fibroblasts)) (UniProt Q7TQN4); assay: condition: only cells treated with the STAT3 inhibitor S3I-201 (100 μM); co-IP; as a1, but cardiac fibroblasts treated with DFX and the STAT3 inhibitor S3I-201 (100 μM); RELA IP blotted for STAT3
[2] = target: NF-κB/RELA, endogenous in rat cardiac fibroblasts (rat (endogenous in primary neonatal rat cardiac fibroblasts)) (UniProt Q7TQN4); assay: co-IP; endogenous proteins in whole-cell lysates of rat cardiac fibroblasts treated with DFX (p53-RELA also kept with S3I-201, Figure 6e); RELA IP blotted for p53 and STAT3, p53 IP blotted for RELA; control IgG; protein A beads, overnight at 4°C, washed with phosphate-buffered saline
[3] = target: NF-κB/RELA, endogenous in rat cardiac fibroblasts (rat (endogenous in primary neonatal rat cardiac fibroblasts)) (UniProt Q7TQN4); assay: condition: only cells treated with 1 μM NFI (NF-κB activation inhibitor); co-IP; as a1, but cardiac fibroblasts treated with DFX and 1 μM NF-κB activation inhibitor (NFI, quinazoline)

| Substance | binding [1] | binding [2] | binding [3] |
| --- | --- | --- | --- |
| STAT3, endogenous in rat cardiac fibroblasts (from UniProt P52631 1-770) | no binding | binds |  |
| p53, endogenous in rat cardiac fibroblasts (from UniProt P10361 1-391) |  | binds | no binding |
